Laboratory results: PubChem BioAssay AID1259308 (NCATS, 2017)
The whole screen tested about 59,000 reagents; below is a random part of them. About 1,510 of all reagents (2.6%) count as active. 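Calls use total luciferase alone and ignore viability, so some active siRNAs may act by altering cell number.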 Reagents against one gene are numbered here. Not all columns of the deposit are shown.

Assay: 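Knock-downs that increase output of a recombinant reporter protein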 (primary screen)
Cell system: human HEK293 embryonic kidney cells stably expressing firefly luciferase (HEK-CMV-Luc2-Hygro)
Knock-down reagent: single siRNA against human genes, 0.8 pmol siRNA per well
Time to read-out: 72 h
Detection: 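Reporter luminescence and viable-cell signal on separate replicate plates, given as percent of non-targeting control and median/MAD z-scores, plus per-cell luciferase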
Direction: total luciferase, z-score and total luciferase, % of control: higher = more reporter protein produced; luciferase per cell, z-score: higher = more reporter output per viable cell
Rule for the call: 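An siRNA counts as active if its total luciferase robust z-score exceeds 3; genes with two or more such siRNAs out of three were retested with fresh siRNAs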
Calls: active = raised luciferase; inactive = no rise

no.	gene symbol	reagent no.	total luciferase, z-score	total luciferase, % of control	luciferase per cell, z-score	outcome
1	RFX7 (GeneID 64864)	1	-0.119	79.5	-0.17	inactive
2	RFX7 (GeneID 64864)	2	-0.368	74.6	-0.304	inactive
3	RFX7 (GeneID 64864)	3	-1.38	54.4	-0.371	inactive
4	CALCR (GeneID 799)	1	-0.784	66.3	0.441	inactive
5	CALCR (GeneID 799)	2	-1.74	47.2	-1.61	inactive
6	CALCR (GeneID 799)	3	-0.0523	80.8	-0.125	inactive
7	ZNF574 (GeneID 64763)	1	-1.48	52.5	1.04	inactive
8	ZNF574 (GeneID 64763)	2	-0.551	70.9	-0.25	inactive
9	ZNF574 (GeneID 64763)	3	-0.655	68.9	-0.293	inactive
10	LINC01144 (GeneID 400752)	1	0.518	92.2	-0.136	inactive
11	LINC01144 (GeneID 400752)	2	-0.0142	81.6	-0.00796	inactive
12	LINC01144 (GeneID 400752)	3	-0.409	73.8	0.133	inactive
13	TIMM17A (GeneID 10440)	1	-0.311	75.7	0.131	inactive
14	TIMM17A (GeneID 10440)	2	-1.25	57.1	-1.91	inactive
15	TIMM17A (GeneID 10440)	3	0.181	85.5	-0.358	inactive
16	ATP6V0E1 (GeneID 8992)	1	0.323	88.3	0.00134	inactive
17	ATP6V0E1 (GeneID 8992)	2	0.0717	83.3	-0.268	inactive
18	ATP6V0E1 (GeneID 8992)	3	0.152	84.9	-0.408	inactive
19	WIPF1 (GeneID 7456)	1	-0.929	63.4	-1.31	inactive
20	WIPF1 (GeneID 7456)	2	-2.26	36.9	-1.65	inactive
21	WIPF1 (GeneID 7456)	3	-0.883	64.3	-0.535	inactive
22	TMEM97 (GeneID 27346)	1	-0.644	69.1	-0.574	inactive
23	TMEM97 (GeneID 27346)	2	-0.0171	81.5	1.58	inactive
24	TMEM97 (GeneID 27346)	3	-0.533	71.3	-0.513	inactive
25	CRLF1 (GeneID 9244)	1	-0.00729	81.7	-0.458	inactive
26	CRLF1 (GeneID 9244)	2	-1.99	42.3	-2.82	inactive
27	CRLF1 (GeneID 9244)	3	0.0353	82.6	0.274	inactive
28	KRTAP9-2 (GeneID 83899)	1	0.183	85.5	2.09	inactive
29	KRTAP9-2 (GeneID 83899)	2	0.721	96.2	0.442	inactive
30	KRTAP9-2 (GeneID 83899)	3	-0.675	68.5	-1.11	inactive
31	AREL1 (GeneID 9870)	1	2.25	127	1.2	inactive
32	AREL1 (GeneID 9870)	2	-1.11	59.9	-0.302	inactive
33	AREL1 (GeneID 9870)	3	-1.5	52	-1.27	inactive
34	OR14K1 (GeneID 343170)	1	-0.32	75.5	0.365	inactive
35	OR14K1 (GeneID 343170)	2	-1.07	60.6	-0.063	inactive
36	OR14K1 (GeneID 343170)	3	0.715	96.1	0.295	inactive
37	SLC6A8 (GeneID 6535)	1	0.706	95.9	0.113	inactive
38	SLC6A8 (GeneID 6535)	2	0.956	101	0.559	inactive
39	SLC6A8 (GeneID 6535)	3	3.12	144	2.04	active
40	PRSS57 (GeneID 400668)	1	0.759	97	0.324	inactive
41	PRSS57 (GeneID 400668)	2	1.95	121	1.09	inactive
42	PRSS57 (GeneID 400668)	3	0.578	93.4	0.81	inactive
43	FAM66C (GeneID 440078)	1	-0.984	62.3	0.117	inactive
44	FAM66C (GeneID 440078)	2	0.84	98.6	0.958	inactive
45	FAM66C (GeneID 440078)	3	1	102	1.55	inactive
46	GIPC2 (GeneID 54810)	1	1.23	106	0.921	inactive
47	GIPC2 (GeneID 54810)	2	-0.00707	81.7	0.0999	inactive
48	GIPC2 (GeneID 54810)	3	-0.414	73.7	0.582	inactive
49	ATP10B (GeneID 23120)	1	-1.34	55.3	-1.55	inactive
50	ATP10B (GeneID 23120)	2	0.00781	82	-0.432	inactive
51	ATP10B (GeneID 23120)	3	0.944	101	1.02	inactive
52	ZNF723 (GeneID 646864)	1	-1.63	49.5	2.15	inactive
53	ZNF723 (GeneID 646864)	2	1.08	103	1.47	inactive
54	ZNF723 (GeneID 646864)	3	4.66	174	2.98	active
55	TSPAN4 (GeneID 7106)	1	1.33	108	1.2	inactive
56	TSPAN4 (GeneID 7106)	2	-0.00503	81.8	0.708	inactive
57	TSPAN4 (GeneID 7106)	3	-0.235	77.2	-1.1	inactive
